No constants are given. Whether binding was seen depends on the method and setting. Some binding calls cover weakened binding; strength is not graded here.
Legend:
[1] = biological target: His-tagged recombinant GSK3β (UniProt P49841); assay: cell-free Axin-FITC fluorescence (AFF) assay; His-tagged GSK3 (300 ng) on Ni-NTA beads; FITC Axin peptide (10 ng) with different concentrations of niclosamide, 2 h at 4 °C, PBS pH 7.4 washes; fluorescence of the beads (488/525 nm); both purified
[2] = biological target: His-tagged recombinant GSK3β (UniProt P49841); assay: SPR; ProteOn XPR36; GSK3β immobilised on a GLH sensor chip; peptides in PBS with Tween 20 and 1% DMSO flowed at 100 μl/min; Langmuir model; both purified

Chains of the proteins cited; added tags and fusions are not shown.
UniProt P49841: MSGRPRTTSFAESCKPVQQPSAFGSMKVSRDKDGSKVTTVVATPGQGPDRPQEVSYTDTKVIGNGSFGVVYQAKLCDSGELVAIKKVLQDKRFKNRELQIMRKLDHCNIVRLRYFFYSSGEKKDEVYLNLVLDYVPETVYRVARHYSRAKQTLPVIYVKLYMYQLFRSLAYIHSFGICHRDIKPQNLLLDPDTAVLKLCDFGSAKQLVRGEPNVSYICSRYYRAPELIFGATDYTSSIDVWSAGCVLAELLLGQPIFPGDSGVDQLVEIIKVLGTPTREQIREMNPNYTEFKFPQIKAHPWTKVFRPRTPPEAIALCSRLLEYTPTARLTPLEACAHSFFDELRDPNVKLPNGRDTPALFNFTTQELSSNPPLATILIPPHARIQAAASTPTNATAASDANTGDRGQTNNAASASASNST

| Binder | binding [1] | binding [2] |
| --- | --- | --- |
| VEPQKFAEELIHRLEAVQR (FITC-conjugated (position not given)) [FITC-conjugated 19-mer Axin peptide (Axin1, 383-401)] | binds |  |
| VEPQKAAEEAIHRAEAVQR [19-mer mutant Axin peptide] |  | no binding (tested: 20 μM) |
